In test [1] the target is SAM and HD domain-containing deoxynucleoside triphosphate triphosphohydrolase 1 (SAMHD1) (human (endogenous in THP-1)) (UniProt Q9Y3Z3). Nature of the test: co-IP; endogenous proteins in lysate (1 mg total protein) of 1,25(OH)2D3-stimulated THP-1 M0 macrophages; IP with anti-ASAP2 or anti-SAMHD1 antibody (2 µg) overnight at 4 °C, protein A/G beads, Western blot; IgG as negative control. A general note: Immunoblotting shows a protein as a band on a membrane.

The chains behind the UniProt entries cited, without tags or fusion partners.
UniProt Q9Y3Z3: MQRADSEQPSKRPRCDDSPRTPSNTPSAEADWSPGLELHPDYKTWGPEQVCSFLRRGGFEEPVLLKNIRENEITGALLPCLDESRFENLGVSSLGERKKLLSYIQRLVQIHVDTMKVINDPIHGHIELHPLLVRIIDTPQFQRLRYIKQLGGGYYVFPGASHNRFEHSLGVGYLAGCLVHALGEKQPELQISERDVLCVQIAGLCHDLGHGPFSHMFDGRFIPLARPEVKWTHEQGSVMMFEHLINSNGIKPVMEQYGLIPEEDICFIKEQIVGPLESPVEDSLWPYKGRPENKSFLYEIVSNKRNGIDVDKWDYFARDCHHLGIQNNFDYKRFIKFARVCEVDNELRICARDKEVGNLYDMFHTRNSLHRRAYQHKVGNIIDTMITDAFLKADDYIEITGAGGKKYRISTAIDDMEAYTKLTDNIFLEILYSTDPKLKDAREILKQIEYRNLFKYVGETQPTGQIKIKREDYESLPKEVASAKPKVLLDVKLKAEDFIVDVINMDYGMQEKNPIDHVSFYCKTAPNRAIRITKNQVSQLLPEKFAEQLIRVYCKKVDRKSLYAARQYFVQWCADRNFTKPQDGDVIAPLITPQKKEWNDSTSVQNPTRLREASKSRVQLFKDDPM
UniProt O43150: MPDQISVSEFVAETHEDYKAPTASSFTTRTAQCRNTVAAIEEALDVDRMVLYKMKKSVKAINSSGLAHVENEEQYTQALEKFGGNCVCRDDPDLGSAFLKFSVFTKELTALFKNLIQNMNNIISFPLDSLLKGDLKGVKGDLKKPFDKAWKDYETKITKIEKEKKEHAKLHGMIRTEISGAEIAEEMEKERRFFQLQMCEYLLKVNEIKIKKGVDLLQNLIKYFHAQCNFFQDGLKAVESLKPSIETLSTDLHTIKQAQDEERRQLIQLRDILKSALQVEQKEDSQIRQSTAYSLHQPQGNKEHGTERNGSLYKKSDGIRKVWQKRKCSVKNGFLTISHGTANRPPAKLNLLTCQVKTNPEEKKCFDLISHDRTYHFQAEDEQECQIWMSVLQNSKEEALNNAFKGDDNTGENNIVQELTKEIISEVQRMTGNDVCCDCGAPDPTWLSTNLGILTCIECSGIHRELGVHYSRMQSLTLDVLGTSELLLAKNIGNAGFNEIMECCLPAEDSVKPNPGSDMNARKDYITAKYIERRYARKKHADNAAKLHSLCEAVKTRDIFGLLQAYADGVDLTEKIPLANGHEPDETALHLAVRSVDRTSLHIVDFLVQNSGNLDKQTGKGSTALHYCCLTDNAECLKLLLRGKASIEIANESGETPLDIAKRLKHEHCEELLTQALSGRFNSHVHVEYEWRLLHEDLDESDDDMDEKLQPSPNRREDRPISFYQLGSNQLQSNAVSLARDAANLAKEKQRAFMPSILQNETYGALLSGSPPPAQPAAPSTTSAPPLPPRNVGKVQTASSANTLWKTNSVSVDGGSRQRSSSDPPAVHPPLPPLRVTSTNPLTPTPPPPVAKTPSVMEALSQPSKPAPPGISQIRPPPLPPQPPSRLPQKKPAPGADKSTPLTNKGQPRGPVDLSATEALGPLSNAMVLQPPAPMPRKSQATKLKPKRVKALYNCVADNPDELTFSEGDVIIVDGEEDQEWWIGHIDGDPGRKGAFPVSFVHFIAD

Test [2] addresses ArfGAP with SH3 Domain, Ankyrin Repeat and PH Domain 2 (ASAP2) (human (endogenous in THP-1)) (UniProt O43150). Described as above.

Here are results for two substances from PMC9699620.

Results are given in words; binding and its absence hold for the method and conditions named. Binding seen in cells or lysates may run through a third protein. Some binding calls cover weakened binding; strength is not graded here.

In the case of “ArfGAP with SH3 Domain, Ankyrin Repeat and PH Domain 2 (ASAP2) (from UniProt O43150 1-1006)”, in test [1], the binding result is on record as “binds”.

With “SAM and HD domain-containing deoxynucleoside triphosphate triphosphohydrolase 1 (SAMHD1) (from UniProt Q9Y3Z3 1-626)”, in test [2], the binding entry is recorded as “binds”.
